Measurements from PubChem BioAssay AID2685 (National Center for Advancing Translational Sciences (NCATS), 2010).
Some of the results follow. The main result of the screen is listed elsewhere. These columns were measured beside it and carry no call. The list favours compounds with an active or inconclusive main result. The note in brackets gives the kind of curve behind each potency; many fits are weak.

Test: qHTS Assay for Lipid Storage Modulators in Drosophila S3 Cells;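 as to cell number change: cells counted by Cell Tracker Red CMTPX staining in the red channel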
Conditions: BODIPY lipid droplet fluorescence, 18-24 h; for cell number change: measured here: cell count max response, cells fed with added oleic acid
How it was run: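 Drosophila S3 cells loaded with oleic acid (400 uM, as added) and compounds at several concentrations; lipid droplets imaged by 488-nm laser-scanning cytometry, 500–530 nm intensity and object ratio to cell channel. Percent activity normalized to 20 uM Triacsin C.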

[1] = measured here: lipid fluorescence (Fed channel) AC50, cells fed with added oleic acid
[2] = measured here: cell number channel AC50, cells fed with added oleic acid

Row | SMILES | cell number change [%] | AC50 [1] | AC50 [2]
1 | O=C(COC(=O)c1cc[n+]([O-])cc1)Nc1ccc([N+](=O)[O-])cc1 | 11.9 | – | –
2 | Cc1ccc(Cl)cc1N1CCN(Cc2cc3c(cc2O)CCC3)CC1 | – | 3.26 µM [rising, partial curve] | –
3 | CCCn1c(SCC(=O)NCc2ccc(Cl)cc2)n[nH]c1=O | -29.4 | 29.1 µM [falling, single point] | –
4 | CCC(=O)NCCNC(=O)c1c(SC)nsc1SC | 16.5 | 29.1 µM [rising, single point] | –
5 | Cc1cccc(-n2ncc3c(N4CCc5ccccc54)ncnc32)c1 | – | 0.082 µM [rising, full curve, poor fit] | 6.51 µM [falling, single point]
6 | COc1cccc(NC(=O)Cn2cnc3sc(C)c(S(=O)(=O)N4CCCCC4)c3c2=O)c1 | 19.8 | – | –
7 | O=c1oc2cc([N+](=O)[O-])ccc2nc1/C=C(O)/C=C/c1ccccc1 | -10.9 | – | –
8 | COc1ccc(Cl)cc1S(=O)(=O)N1CCN(Cc2ccc3c(c2)OCO3)CC1 | – | 6.51 µM [falling, single point] | –
9 | CCCN(CCC)CCCNC(=O)C1c2cc(OC)c(OC)cc2C(=O)N(C)C1c1cccs1 (configuration not stated) | 3.73 | 29.1 µM [falling, single point] | –
10 | CCC(C)NC(=O)CO/N=C/c1ccccc1OC(F)F (configuration not stated) | 23 | 1.64 µM [rising, partial curve] | 6.51 µM [rising, single point]
11 | COc1ccc(C(=O)NC(C(=O)NCC2(N3CCCCC3)CCCCC2)C(C)C)cc1 (configuration not stated) | -6.01 | 0.103 µM [falling, full curve, poor fit] | 0.116 µM [falling, full curve, poor fit]
12 | O=C(N/N=C/c1ccccc1O)c1cc[n+]([O-])cc1 | – | 6.51 µM [falling, single point] | –
13 | CC1CN(c2sc(S(C)(=O)=O)nc2S(=O)(=O)c2ccc(Cl)cc2)CC(C)O1 (configuration not stated) | -9.89 | – | –
14 | O=[N+]([O-])c1cccnc1N1CCN(c2ccc(F)cc2)CC1 | -21.6 | 18.4 µM [falling, single point] | –
15 | COc1ccc([N+](=O)[O-])cc1NC(=O)Cc1noc2ccc(C)cc12 | -14.5 | – | –
16 | CC(OC(=O)CCC1CCCCC1)C(=O)Nc1ccc(S(N)(=O)=O)cc1 (configuration not stated) | -37.5 | – | 16.4 µM [falling, single point]
17 | O=C(c1ccc(Br)o1)N(Cc1ccccc1)Cc1ccccc1 | -16.6 | 1.84 µM [rising, partial curve] | –
18 | COC(=O)Nc1ccc(S(=O)(=O)Nc2cc(C(F)(F)F)c[nH]c2=O)cc1 | 8.56 | – | –
19 | Cc1nn(-c2ccccc2)c(Cl)c1C(=O)NCC(=O)O | -13.7 | 23.1 µM [falling, partial curve] | –

Row | SMILES | cell number change [%] | AC50 [1] | AC50 [2]
20 | c1ccc2cc(CNCc3cccc4ccccc34)ccc2c1 | -42.2 | 29.1 µM [falling, single point] | 29.1 µM [falling, single point]
21 | CC1(c2cccc([N+](=O)[O-])c2)CC(C)(C)N(C(=O)c2ccccc2)c2ccccc21 (configuration not stated) | 31 | 5.17 µM [rising, full curve] | 3.26 µM [rising, partial curve, poor fit]
22 | CCCCn1c(-c2csc3ccccc23)n[nH]c1=S | – | 0.651 µM [falling, single point] | –
23 | CCc1ccc(C(C)NC(=O)/C(C#N)=C\c2cn[nH]c2-c2ccccc2)cc1 (configuration not stated) | -40.6 | 0.13 µM [rising, full curve, poor fit] | 16.4 µM [falling, partial curve, poor fit]
24 | N#C/C(=N\Nc1ccccc1Cl)C(=O)c1ccccc1 | -8.68 | – | –
25 | O=C(N/N=C/c1ccc(C(F)(F)F)cc1)c1ccncc1 | 11 | 29.1 µM [rising, single point] | –
26 | Nc1ccc(C(=O)OCc2ccncc2)cc1[N+](=O)[O-] | 12 | 0.116 µM [rising, full curve, poor fit] | 0.731 µM [falling, single point]
27 | O=C(CNC(=O)c1ccc2c(c1)OCO2)N/N=C(Br)/C=C/c1ccccc1 | -36.7 | 2.31 µM [rising, partial curve] | 1.64 µM [rising, partial curve]
28 | CC(Sc1nc2ccccc2c(=O)n1CCc1ccc(S(N)(=O)=O)cc1)C(=O)NC(N)=O (configuration not stated) | -16.7 | – | –
29 | Cc1ccc(S(=O)(=O)N(C)C)cc1NC(=O)c1cncc(Br)c1 | – | 5.8 µM [falling, partial curve] | –
30 | CN(c1nc(-c2ccc(Br)cc2)cs1)C1CCS(=O)(=O)C1 (configuration not stated) | – | 2.31 µM [rising, single point] | 6.51 µM [rising, partial curve, poor fit]
31 | COC(=O)C(C)Oc1ccc(-c2nccc(-c3ccc(F)cc3)n2)cc1 (configuration not stated) | 1.06 | 6.51 µM [rising, single point] | –
32 | CCOC(=O)C1CCCN(C(=O)c2sc3nc(-c4ccc(OC)cc4)cn3c2C)C1 (configuration not stated) | -32.5 | 16.4 µM [falling, single point] | 29.1 µM [falling, single point]
33 | N#Cc1cccc(NS(=O)(=O)c2ccc(S(=O)(=O)N3CCOCC3)cc2)c1 | 43.3 | 6.51 µM [falling, single point] | 14.6 µM [rising, partial curve]
34 | O=C(CCC1CCCCC1)NCc1cccs1 | 51.8 | – | 29.1 µM [rising, single point]
35 | CCc1noc(C)c1C(=O)OCC(=O)NCc1ccccc1 | 2.77 | 16.4 µM [rising, single point] | –
36 | COc1ccc(C(=O)CCC(=O)N2CCN(c3cccc(Cl)c3)CC2)cc1 | -1.15 | 9.2 µM [falling, partial curve] | –
37 | CCOC(=O)CNC(=O)CSc1nnnn1-c1ccc(C)c(C)c1 | -9.14 | 1.16 µM [rising, full curve] | –
38 | Cc1cccc(C2c3[nH]c4ccccc4c3CCN2C(=O)CN2CCOC2=O)n1 (configuration not stated) | 11.5 | 2.59 µM [rising, partial curve, poor fit] | –

Structural class: the compounds so far containing a CF3 group
Row | SMILES | cell number change [%] | AC50 [1] | AC50 [2]
18 | COC(=O)Nc1ccc(S(=O)(=O)Nc2cc(C(F)(F)F)c[nH]c2=O)cc1 | 8.56 | – | –
25 | O=C(N/N=C/c1ccc(C(F)(F)F)cc1)c1ccncc1 | 11 | 29.1 µM [rising, single point] | –
